Data taken from PMC1540706.
No constants are given. Whether binding was seen depends on the method and setting. Binding seen in cells or lysates may run through a third protein. Here binding means that the protein was enriched with, or labelled near, the bait; the list need not be complete.

Protein sequences, listed by entry. Tags and fused reporters are not part of them. Residues count along the entry.
UniProt P63010, residues 700-937: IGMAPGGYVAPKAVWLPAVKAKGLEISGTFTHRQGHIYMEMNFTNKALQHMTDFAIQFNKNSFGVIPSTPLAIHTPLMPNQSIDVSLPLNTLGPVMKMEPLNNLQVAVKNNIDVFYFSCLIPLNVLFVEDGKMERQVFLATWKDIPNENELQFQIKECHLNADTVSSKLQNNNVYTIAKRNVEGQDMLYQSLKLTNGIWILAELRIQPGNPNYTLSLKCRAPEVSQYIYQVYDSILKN
UniProt Q9Y5X1: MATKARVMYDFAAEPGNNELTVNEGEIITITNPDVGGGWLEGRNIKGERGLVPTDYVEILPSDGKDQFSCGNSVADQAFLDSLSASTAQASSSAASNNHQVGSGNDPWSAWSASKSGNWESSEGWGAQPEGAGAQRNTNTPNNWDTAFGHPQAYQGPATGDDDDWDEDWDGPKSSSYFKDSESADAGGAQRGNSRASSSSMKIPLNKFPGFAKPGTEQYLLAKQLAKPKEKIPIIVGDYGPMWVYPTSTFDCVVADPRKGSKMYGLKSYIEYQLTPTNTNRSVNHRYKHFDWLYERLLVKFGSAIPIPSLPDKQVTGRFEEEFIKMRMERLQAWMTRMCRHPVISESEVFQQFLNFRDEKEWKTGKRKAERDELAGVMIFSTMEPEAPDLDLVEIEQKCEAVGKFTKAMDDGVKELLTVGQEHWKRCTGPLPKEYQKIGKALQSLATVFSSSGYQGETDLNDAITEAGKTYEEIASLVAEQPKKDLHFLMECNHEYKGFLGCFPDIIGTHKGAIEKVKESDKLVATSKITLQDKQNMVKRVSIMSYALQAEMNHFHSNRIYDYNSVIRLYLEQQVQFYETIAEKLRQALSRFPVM
UniProt Q14677: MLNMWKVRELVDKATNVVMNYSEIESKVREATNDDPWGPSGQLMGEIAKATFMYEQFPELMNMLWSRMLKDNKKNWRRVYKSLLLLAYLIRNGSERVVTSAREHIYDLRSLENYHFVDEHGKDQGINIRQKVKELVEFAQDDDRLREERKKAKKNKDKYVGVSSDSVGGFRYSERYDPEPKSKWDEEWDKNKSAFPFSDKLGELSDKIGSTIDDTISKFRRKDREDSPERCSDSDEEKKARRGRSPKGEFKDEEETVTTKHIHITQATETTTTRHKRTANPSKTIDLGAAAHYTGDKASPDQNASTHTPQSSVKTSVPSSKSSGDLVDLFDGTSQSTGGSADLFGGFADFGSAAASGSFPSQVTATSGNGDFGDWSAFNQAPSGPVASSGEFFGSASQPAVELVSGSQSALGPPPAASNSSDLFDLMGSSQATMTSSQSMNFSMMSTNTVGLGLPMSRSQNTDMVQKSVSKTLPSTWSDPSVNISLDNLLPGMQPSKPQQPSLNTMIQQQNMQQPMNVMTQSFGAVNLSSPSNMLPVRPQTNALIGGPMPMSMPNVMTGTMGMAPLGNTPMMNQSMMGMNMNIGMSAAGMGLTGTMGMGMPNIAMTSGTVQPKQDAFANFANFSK
UniProt Q15811, residues 1-1220: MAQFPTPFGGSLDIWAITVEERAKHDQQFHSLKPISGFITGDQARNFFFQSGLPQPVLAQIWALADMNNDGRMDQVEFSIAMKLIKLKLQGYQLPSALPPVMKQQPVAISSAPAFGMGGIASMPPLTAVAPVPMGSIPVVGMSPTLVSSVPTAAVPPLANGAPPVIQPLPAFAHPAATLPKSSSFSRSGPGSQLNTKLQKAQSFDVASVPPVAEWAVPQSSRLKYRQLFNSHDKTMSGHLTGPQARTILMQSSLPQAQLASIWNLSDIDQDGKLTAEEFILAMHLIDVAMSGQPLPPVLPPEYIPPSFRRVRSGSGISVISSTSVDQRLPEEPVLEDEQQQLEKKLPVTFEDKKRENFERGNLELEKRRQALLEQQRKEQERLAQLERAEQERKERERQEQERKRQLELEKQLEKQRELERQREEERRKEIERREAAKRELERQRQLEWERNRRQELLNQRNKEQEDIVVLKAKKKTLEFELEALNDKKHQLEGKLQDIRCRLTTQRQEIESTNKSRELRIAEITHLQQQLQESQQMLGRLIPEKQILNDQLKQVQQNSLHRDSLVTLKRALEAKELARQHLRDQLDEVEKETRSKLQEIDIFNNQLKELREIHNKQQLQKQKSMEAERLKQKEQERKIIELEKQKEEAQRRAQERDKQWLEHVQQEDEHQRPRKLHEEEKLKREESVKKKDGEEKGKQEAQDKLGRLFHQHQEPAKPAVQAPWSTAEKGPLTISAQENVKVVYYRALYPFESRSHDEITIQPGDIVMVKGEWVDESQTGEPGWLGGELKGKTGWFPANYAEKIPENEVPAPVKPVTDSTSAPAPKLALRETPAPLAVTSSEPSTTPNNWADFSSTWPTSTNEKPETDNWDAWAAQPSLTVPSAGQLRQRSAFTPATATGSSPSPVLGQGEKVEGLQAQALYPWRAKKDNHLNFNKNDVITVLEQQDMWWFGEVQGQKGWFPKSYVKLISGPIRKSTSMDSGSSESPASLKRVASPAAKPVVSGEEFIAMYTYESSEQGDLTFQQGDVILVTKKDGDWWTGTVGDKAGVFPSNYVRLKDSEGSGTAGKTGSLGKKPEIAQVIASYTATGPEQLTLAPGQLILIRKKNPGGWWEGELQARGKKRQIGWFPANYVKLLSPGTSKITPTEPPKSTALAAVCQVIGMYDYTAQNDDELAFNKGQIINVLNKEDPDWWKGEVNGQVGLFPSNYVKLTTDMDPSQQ

Biological target: GST-human-β2-appendage (700–937) (human) (UniProt P63010)
Test: affinity purification with mass spectrometry; 30–100 μg GST-appendage on glutathione-sepharose beads in HeLa cell extract (150 mM NaCl, 20 mM HEPES pH 7.4, 2 mM DTT, NP40, 0.1% Tx-100), 1 h at 4 °C, 4 washes; Coomassie bands read by LC-MS/MS; only the target purified

Row | binding | Substance
1 | binds | Hsc70 (from UniProt P11142-1 1-646)
2 | binds | Tom1 (from UniProt O60784-1 1-492)
3 | binds | sorting-nexin9 (from UniProt Q9Y5X1 1-595)

Further lines, the substance ahead of its results:

Row | Substance | binding
4 | epsinR (from UniProt Q14677 1-625) | binds
5 | intersectin1 (from UniProt Q15811-2 1-1220) | binds
